In PubChem BioAssay AID602365 (National Center for Advancing Translational Sciences (NCATS), 2012):
Inconclusive means that the source gave no clear call. Such entries were picked first, then a sample of the others. Where the call is inconclusive, the potency comes from a doubtful curve fit. Activity calls are given as the source filed them. Calls follow the shape of the dose curve; as a rule, active = well fitted inhibition curve with a large enough effect; inconclusive = small, poorly fitted or top-dose-only effect; inactive = flat fitted curve, though single readings scatter.

Amino acid sequences for entries named in this document (tags omitted).
UniProt P08659, whole entry, looked up: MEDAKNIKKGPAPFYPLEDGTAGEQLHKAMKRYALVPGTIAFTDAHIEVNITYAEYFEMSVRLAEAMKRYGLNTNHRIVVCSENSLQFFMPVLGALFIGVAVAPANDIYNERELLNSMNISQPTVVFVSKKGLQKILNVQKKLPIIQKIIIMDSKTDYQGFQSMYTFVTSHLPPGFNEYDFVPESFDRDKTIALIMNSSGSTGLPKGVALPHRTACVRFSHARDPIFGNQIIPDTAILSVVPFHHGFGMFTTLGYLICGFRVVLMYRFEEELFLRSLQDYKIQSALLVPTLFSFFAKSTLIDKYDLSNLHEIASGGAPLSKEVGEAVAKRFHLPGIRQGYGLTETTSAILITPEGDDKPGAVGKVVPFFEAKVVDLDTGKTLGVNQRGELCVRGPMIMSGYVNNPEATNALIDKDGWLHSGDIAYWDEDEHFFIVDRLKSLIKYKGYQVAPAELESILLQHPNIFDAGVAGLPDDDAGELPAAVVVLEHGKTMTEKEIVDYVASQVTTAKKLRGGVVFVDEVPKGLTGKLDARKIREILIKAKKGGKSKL

The compounds below were run against Luciferin 4-monooxygenase (Photinus pyralis) (UniProt P08659) (assay: FLuc inhibitory activity for the follow-up compounds in a biochemical assay with 1mM D-luciferin). Conditions: purified FLuc, luminescence; series mostly up to 57.5 µM; activity change, negative = inhibition: at the top concentration.
Text: NCGC Assay Overview: Firefly (Photinus pyralis) luciferase is one of the most commonly used transcriptional reporters. It is considered one of the more dynamically responsive reporters - that is, responsive to changes in reporter transcription - as it requires no post-translational modifications and is enzymatically active directly after protein synthesis (Wood, 1998). With no endogenous expression in mammalian cells and without the requirement of external excitation, it offers very little background signal, thus generally providing excellent signal to background for most assays. Previous profiling work to determine the prevalence of compounds that affect FLuc enzymatic activity (PubChem AID 411) identified that ~3% of the MLSMR library (then at ~72K) inhibited FLuc. […] Of the compounds identified in this profile that inhibited FLuc, 151 compounds were selected for further analysis, in an effort to better understand their mode of inhibiting FLuc. The assay described here was to determine the activity of the compounds in a FLuc assay that contained a KM concentration of ATP and a high concentration (1mM) of D-luciferin.
NCGC Assay Protocol Summary: Reagents: 50mM Tris acetate, pH 7.5; 10mM Mg acetate; 1mM D-luciferin (Sigma #L9504); 10uM ATP; 0.01% Tween-20; 0.05% BSA; 10nM P. pyralis luciferase (Sigma #L9506) Control compounds used were two known firefly luciferase inhibitors (3-(5-(3-chlorophenyl)-1,2,4-oxadiazol-3-yl)benzoic acid and 5-(2-fluorophenyl)-3-phenyl-1,2,4-oxadiazole), and DMSO. Three microliters containing firefly luciferase substrates in buffer (final concentrations: 50mM Tris acetate, pH 7.5, 10mM Mg acetate, 0.01% Tween-20, 0.05% BSA, 1mM D-luciferin, 10uM ATP) are dispensed into each well of a Greiner white, solid-bottom 1536-well format plate using a flying reagent dispenser (FRD). These assay plates were then treated with 23nL of compound or DMSO using a Kalypsys pin tool, which allows for delivery of a 12-point intraplate titration of each compound to the assay plate (quantitative HTS), with a final compound concentrations ranging from approximately ~60uM to 0.3nM. One microliter of firefly luciferase in […] Tris-acetate buffer was then delivered by FRD to each well for a final enzyme concentration of 10nM. Luciferase activity was then measured using a ViewLux CCD imager (PerkinElmer), with an average exposure time of 2-30 seconds (2X binning, medium/high gain).
`COc1cc(OC)cc(C(=O)Nc2ccccc2-c2nc3ccccc3s2)c1` was tested, and the “activity change, negative = inhibition” value was inactive: 1.62%. For `O=C(Nc1cccc(-c2nc3ccccc3s2)c1)C1=COCCO1`, the Potency was inconclusive: 20.6 µM [inhibitor, partial curve]. In the case of `Cc1ccc(C(=O)Nc2ccc(C(=O)O)cc2)cc1S(=O)(=O)NCc1ccccc1`, the “activity change, negative = inhibition” value is reported as inactive: -15.4%. For `O=C(Nc1ccccc1C(=O)O)c1cccc(S(=O)(=O)N2CCCC2)c1`, the Potency was inconclusive: 20.6 µM [inhibitor, partial curve]. For `O=C(O)c1cccc(NC(=O)c2ccc(S(=O)(=O)c3ccccc3)cc2)c1`, the Potency was inconclusive: 32.6 µM [inhibitor, partial curve, poor fit]. With `O=C(Nc1ccccc1-c1nc2ccccc2s1)c1ccc(Br)o1` the “activity change, negative = inhibition” value was inactive: -0.997%. In the case of `Cc1ccc2nc(-c3ccc(N)cc3)sc2c1`, the Potency is reported as active: 0.517 µM. For `O=C(O)c1cccc(NC(=O)c2ccccc2NC(=O)c2ccco2)c1`, the “activity change, negative = inhibition” value was inactive: -17.2%. `COc1ccc2nc(NC(=O)CCc3nc(-c4ccccc4F)no3)sc2c1` was tested, and the “activity change, negative = inhibition” value was inactive: -3.48%. With `COc1ccc2nc(NC(=O)CCc3ccc(OC)c(OC)c3)sc2c1` the “activity change, negative = inhibition” value was inactive: -15.1%. For `COc1ccc(CC(=O)Nc2cccc(C(=O)Nc3ccccc3C(=O)O)c2)cc1OC`, the Potency was inconclusive: 46.1 µM [inhibitor, partial curve, poor fit]. With `O=C(O)c1cccc(NC(=O)c2cccc(S(=O)(=O)N3CCCCC3)c2)c1` the Potency was inconclusive: 20.6 µM [inhibitor, partial curve]. With `COc1ccc(C(=O)Nc2ccccc2-c2nc3ccccc3s2)c(OC)c1` the “activity change, negative = inhibition” value was inactive: -4.07%. `Nc1ccccc1C(=O)Nc1cccc(C(=O)O)c1` was tested, and the Potency was inconclusive: 20.6 µM [inhibitor, partial curve]. With `O=C(O)c1ccc(NC(=O)c2cc(S(=O)(=O)N3CCCCC3)c(Cl)cc2Cl)cc1` the “activity change, negative = inhibition” value was inactive: -3.94%. `O=C(Nc1ccccc1C(=O)O)c1cc(S(=O)(=O)Nc2ccccc2)ccc1Cl` was tested, and the “activity change, negative = inhibition” value was inactive: -12.9%. `COc1ccc2nc(NC(=O)C3CCN(S(=O)(=O)c4cccs4)CC3)sc2c1` was tested, and the Potency was inconclusive: 13 µM [inhibitor, single point]. With `COc1ccc(NS(=O)(=O)c2cccc(C(=O)Nc3ccccc3C(=O)O)c2)cc1` the “activity change, negative = inhibition” value was inactive: -13.9%. With `CCCOc1cccc(C(=O)Nc2ccc(-c3nc4ccccc4s3)c(Cl)c2)c1` the “activity change, negative = inhibition” value was inactive: -4.48%. In the case of `CC(C)c1ccc(C(=O)Nc2ccc(-c3nc4ccccc4s3)c(Cl)c2)cc1`, the “activity change, negative = inhibition” value is reported as inactive: -7.4%. For `Cc1ccc(NS(=O)(=O)c2ccc(Cl)c(C(=O)Nc3cccc(C(=O)O)c3)c2)cc1`, the “activity change, negative = inhibition” value was inactive: -7.82%. In the case of `COc1cccc(OC)c1C(=O)Nc1cccc(C(=O)Nc2cccc(C(=O)O)c2)c1`, the Potency is reported as inconclusive: 18.3 µM [inhibitor, partial curve]. `Cc1cccc(C(=O)Nc2ccc(-c3nc4ccccc4s3)cc2Cl)c1` was tested, and the “activity change, negative = inhibition” value was inactive: -10.9%. For `O=C(O)c1cccc(NC(=O)c2cccc(S(=O)(=O)N3CCc4ccccc43)c2)c1`, the “activity change, negative = inhibition” value was inactive: -14.4%. For `Cc1cccc(C(=O)Nc2ccccc2C(=O)Nc2ccc(C(=O)O)cc2)c1`, the Potency was inconclusive: 36.6 µM [inhibitor, single point]. With `Cc1ccc(C(=O)Nc2ccc(C(=O)O)cc2)cc1S(=O)(=O)Nc1ccccc1` the “activity change, negative = inhibition” value was inactive: 2.27%. With `CN(C)S(=O)(=O)c1ccc(C(=O)Nc2ccccc2C(=O)O)cc1` the Potency was inconclusive: 23.1 µM [inhibitor, partial curve]. `CC(=O)Nc1cccc(C(=O)Nc2ccccc2C(=O)O)c1` was tested, and the Potency was inconclusive: 32.6 µM [inhibitor, partial curve]. `CCc1noc(C)c1C(=O)Nc1nc2ccc(OC)cc2s1` was tested, and the Potency was inconclusive: 36.6 µM [inhibitor, partial curve]. With `O=C(Nc1ccccc1-c1nc2ccccc2s1)c1cccnc1` the Potency was inconclusive: 23.1 µM [inhibitor, partial curve, poor fit]. With `O=C(O)c1ccc(NC(=O)c2ccccc2NC(=O)c2cccc(Br)c2)cc1` the Potency was inconclusive: 20.6 µM [inhibitor, partial curve]. `Oc1ccc(-c2nc3ccccc3s2)c(O)c1` was tested, and the Potency was active: 16.3 µM. `COc1ccc(C(=O)Nc2ccccc2C(=O)Nc2ccc(C(=O)O)cc2)cc1` was tested, and the Potency was active: 8.19 µM. For `O=C(Nc1ccccc1C(=O)O)c1cccc(C(=O)Nc2ccccc2C(=O)O)c1`, the Potency was inconclusive: 20.6 µM [inhibitor, partial curve, poor fit]. `Cc1ccc2sc(-c3ccc(NC(=O)c4cc(-n5cnnc5)ccc4Cl)cc3)nc2c1` was tested, and the Potency was active: 18.3 µM. With `COc1ccc2nc(NC(=O)c3ccccc3C(=O)O)sc2c1` the Potency was inconclusive: 23.1 µM [inhibitor, partial curve, poor fit]. For `COc1ccccc1C(=O)Nc1ccc(C(=O)Nc2ccccc2C(=O)O)cc1`, the Potency was inconclusive: 20.6 µM [inhibitor, partial curve, poor fit]. In the case of `Cn1c(N/N=C/c2cc3ccccc3nc2Cl)nc2ccccc21`, the Potency is reported as inconclusive: 41.1 µM [inhibitor, partial curve, poor fit]. In the case of `COc1ccc2nc(NC(=O)c3ccc([N+](=O)[O-])o3)sc2c1`, the Potency is reported as active: 5.8 µM. In the case of `COc1ccc2nc(NC(=O)c3cccs3)sc2c1`, the Potency is reported as inconclusive: 23.1 µM [inhibitor, partial curve].
